Source: patent US9988358B2, “Phenazinium mediators” (Roche Diagnostics Operations, Inc., priority 2014, dated 2018)

Experiment: Performance as redox mediator in glucose test strips with and without ascorbate
Conditions: for effect of ascorbate on measured currents: ascorbic acid 15 mg/dL (0.85 mM), 1.48 mM mediator; for slope of dose response: glucose 0-80 mg/dL, 1.48 mM redox mediator

Row | Structure (SMILES) | effect of ascorbate on measured currents | slope of dose response
1 | CC[n+]1c2ccccc2nc2c(OCCCC(=O)O)cccc21 [1-(3-Carboxypropoxy)-5-ethylphenazinium, reference compound] | causes a current offset at low glucose concentrations | 16.7 nA*dL/mg
2 | CC[n+]1c2ccccc2nc2c(NC(=O)CCC(=O)O)cccc21 [1-(3-Carboxy-propionylamino)-5-ethyl-phenazinium] | only has a small effect on the currents | 34 nA*dL/mg
